# ± gives the standard deviation of the averaged measurements. This is one part of the list.
# By UniProt entry, the sequences of proteins in these tests, tags left out. Where a name states a change or a piece, a line headed by the entry shows the natural chain unless it says otherwise.
# UniProt O96013: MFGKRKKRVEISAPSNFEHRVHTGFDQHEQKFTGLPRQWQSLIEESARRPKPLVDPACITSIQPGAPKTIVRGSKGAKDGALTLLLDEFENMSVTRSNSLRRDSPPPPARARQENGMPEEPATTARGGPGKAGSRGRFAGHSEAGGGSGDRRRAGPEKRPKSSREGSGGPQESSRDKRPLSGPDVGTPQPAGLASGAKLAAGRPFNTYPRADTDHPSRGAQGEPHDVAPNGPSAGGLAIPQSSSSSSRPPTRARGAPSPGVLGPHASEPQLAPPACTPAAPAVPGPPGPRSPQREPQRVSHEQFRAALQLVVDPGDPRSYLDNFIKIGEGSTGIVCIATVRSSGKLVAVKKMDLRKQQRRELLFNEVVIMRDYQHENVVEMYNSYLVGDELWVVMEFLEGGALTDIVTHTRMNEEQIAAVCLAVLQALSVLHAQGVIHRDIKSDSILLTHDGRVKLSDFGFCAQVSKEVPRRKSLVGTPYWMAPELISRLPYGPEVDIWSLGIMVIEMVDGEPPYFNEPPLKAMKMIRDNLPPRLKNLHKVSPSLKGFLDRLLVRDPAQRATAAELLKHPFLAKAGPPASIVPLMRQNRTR
# UniProt O75348, whole entry: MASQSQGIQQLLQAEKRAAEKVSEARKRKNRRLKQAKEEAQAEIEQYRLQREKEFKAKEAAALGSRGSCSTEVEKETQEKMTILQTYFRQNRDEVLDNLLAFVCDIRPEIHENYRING
# UniProt O95155, whole entry: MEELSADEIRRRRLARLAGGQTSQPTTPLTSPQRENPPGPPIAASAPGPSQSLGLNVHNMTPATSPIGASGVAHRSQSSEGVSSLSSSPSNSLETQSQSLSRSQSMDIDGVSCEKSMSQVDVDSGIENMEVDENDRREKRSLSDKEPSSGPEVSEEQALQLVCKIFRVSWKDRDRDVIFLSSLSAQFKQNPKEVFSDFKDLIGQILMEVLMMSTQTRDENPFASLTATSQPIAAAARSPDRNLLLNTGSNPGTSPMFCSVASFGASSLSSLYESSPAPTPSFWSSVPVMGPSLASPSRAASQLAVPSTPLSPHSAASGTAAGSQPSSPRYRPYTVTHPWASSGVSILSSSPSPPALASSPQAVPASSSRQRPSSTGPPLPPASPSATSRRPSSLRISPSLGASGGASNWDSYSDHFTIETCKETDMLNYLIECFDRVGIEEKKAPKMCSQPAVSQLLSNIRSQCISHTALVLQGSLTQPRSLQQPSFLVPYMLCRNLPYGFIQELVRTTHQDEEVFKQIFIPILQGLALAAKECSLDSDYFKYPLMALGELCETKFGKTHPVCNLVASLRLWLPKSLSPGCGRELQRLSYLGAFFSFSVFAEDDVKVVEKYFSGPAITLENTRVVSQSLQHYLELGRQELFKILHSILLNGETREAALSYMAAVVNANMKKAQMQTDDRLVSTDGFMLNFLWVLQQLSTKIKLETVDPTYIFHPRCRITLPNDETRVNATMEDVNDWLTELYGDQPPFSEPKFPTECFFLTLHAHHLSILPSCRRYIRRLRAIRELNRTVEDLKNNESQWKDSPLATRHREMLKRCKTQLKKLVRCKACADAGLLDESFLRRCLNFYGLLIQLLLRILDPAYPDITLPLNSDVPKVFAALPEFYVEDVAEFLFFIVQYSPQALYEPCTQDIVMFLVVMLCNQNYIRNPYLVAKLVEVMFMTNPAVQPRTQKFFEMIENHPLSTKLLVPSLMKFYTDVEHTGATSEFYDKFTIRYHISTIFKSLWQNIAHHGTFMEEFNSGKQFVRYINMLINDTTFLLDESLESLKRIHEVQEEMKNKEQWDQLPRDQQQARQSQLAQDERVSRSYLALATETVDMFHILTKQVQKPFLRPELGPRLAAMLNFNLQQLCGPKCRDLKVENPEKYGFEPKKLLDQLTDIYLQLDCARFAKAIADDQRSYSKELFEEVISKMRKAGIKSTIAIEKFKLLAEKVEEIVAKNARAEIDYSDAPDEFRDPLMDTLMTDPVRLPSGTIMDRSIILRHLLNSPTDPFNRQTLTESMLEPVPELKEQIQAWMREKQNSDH
# UniProt P02794, whole entry: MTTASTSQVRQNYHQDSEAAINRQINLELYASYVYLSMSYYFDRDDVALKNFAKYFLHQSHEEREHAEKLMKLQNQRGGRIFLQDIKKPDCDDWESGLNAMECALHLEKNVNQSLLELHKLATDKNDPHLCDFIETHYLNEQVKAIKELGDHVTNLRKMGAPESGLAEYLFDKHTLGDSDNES
# UniProt O75164: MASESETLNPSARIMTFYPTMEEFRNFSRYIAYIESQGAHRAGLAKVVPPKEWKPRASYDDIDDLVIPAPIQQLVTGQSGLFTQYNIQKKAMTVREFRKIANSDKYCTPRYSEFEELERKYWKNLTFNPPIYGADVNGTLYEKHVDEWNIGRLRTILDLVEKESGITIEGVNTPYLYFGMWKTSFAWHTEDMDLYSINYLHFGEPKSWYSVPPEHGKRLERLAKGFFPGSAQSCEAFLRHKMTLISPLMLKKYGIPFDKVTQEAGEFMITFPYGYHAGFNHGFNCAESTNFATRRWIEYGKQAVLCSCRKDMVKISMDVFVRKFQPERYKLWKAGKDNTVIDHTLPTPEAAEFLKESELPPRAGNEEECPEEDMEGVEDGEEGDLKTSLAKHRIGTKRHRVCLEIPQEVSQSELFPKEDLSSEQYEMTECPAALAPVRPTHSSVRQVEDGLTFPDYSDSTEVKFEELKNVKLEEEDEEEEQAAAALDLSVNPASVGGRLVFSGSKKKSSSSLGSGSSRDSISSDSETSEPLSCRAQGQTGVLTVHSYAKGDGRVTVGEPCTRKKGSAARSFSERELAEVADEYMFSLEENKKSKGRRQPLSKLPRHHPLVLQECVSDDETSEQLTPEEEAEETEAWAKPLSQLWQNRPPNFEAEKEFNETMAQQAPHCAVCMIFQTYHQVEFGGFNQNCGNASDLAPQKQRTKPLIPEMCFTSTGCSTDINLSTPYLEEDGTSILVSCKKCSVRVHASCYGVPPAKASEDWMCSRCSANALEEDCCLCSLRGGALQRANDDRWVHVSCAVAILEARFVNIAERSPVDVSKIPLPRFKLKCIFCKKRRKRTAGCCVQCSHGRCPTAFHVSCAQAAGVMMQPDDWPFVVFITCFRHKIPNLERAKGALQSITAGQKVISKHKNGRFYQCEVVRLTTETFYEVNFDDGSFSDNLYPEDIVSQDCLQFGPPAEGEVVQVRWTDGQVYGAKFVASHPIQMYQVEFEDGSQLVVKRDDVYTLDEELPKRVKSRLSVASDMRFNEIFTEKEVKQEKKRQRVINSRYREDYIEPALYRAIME
# UniProt O75663: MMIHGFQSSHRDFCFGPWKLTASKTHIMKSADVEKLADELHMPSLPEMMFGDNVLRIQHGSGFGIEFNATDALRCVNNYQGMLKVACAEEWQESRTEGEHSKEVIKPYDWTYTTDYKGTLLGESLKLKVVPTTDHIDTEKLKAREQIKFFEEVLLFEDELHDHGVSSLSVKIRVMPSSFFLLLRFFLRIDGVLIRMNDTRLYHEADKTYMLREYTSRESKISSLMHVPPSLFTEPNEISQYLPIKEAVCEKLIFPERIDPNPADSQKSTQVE
# UniProt O75844: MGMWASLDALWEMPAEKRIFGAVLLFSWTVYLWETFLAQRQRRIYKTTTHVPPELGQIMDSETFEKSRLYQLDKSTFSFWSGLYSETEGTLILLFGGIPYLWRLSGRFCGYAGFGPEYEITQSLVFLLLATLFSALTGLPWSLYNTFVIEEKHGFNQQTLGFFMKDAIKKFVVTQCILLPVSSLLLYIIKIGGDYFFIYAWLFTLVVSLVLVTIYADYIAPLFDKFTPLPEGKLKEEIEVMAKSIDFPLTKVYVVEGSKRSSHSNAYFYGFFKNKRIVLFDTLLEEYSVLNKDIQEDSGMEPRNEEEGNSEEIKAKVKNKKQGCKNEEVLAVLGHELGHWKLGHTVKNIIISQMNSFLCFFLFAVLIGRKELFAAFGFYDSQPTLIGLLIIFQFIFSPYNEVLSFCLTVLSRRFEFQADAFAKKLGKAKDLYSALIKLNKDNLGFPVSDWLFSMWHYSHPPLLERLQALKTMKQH
# UniProt O95372: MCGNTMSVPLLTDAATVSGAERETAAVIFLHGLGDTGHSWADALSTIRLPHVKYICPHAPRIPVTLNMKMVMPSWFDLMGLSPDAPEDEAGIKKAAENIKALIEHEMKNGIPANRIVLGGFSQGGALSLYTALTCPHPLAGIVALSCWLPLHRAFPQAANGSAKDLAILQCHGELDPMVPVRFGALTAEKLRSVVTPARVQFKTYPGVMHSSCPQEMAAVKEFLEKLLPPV
# UniProt O94927: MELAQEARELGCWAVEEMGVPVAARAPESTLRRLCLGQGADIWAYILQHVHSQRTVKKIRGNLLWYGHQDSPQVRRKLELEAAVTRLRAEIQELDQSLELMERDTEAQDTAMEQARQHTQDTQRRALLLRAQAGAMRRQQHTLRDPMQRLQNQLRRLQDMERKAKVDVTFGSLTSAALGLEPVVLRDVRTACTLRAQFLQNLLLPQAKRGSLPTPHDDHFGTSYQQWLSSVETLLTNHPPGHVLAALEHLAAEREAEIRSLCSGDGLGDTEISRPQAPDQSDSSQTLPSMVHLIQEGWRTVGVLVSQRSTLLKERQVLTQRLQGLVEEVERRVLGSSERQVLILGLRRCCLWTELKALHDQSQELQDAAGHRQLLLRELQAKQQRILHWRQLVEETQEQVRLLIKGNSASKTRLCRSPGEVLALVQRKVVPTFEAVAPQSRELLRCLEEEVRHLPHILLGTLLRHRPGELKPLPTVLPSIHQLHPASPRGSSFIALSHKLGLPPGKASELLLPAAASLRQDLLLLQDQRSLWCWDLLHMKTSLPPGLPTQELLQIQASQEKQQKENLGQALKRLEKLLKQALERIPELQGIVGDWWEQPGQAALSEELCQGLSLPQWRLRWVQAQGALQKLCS
# UniProt O94766: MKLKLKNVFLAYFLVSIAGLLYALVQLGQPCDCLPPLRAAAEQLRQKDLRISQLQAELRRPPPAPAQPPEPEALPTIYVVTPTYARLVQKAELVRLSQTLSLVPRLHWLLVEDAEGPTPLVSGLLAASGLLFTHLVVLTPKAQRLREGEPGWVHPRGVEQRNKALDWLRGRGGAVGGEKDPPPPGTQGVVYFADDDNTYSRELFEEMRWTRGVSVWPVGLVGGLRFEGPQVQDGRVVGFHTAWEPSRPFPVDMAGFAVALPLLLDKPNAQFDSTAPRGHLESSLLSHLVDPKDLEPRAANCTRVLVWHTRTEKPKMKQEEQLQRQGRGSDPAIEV
# UniProt P00492: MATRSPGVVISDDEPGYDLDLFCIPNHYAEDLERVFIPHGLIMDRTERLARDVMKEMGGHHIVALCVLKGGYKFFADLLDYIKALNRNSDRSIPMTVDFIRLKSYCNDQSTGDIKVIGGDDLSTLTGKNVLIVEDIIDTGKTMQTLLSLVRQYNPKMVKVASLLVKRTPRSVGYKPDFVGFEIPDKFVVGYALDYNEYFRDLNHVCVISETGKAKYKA
# UniProt O95453: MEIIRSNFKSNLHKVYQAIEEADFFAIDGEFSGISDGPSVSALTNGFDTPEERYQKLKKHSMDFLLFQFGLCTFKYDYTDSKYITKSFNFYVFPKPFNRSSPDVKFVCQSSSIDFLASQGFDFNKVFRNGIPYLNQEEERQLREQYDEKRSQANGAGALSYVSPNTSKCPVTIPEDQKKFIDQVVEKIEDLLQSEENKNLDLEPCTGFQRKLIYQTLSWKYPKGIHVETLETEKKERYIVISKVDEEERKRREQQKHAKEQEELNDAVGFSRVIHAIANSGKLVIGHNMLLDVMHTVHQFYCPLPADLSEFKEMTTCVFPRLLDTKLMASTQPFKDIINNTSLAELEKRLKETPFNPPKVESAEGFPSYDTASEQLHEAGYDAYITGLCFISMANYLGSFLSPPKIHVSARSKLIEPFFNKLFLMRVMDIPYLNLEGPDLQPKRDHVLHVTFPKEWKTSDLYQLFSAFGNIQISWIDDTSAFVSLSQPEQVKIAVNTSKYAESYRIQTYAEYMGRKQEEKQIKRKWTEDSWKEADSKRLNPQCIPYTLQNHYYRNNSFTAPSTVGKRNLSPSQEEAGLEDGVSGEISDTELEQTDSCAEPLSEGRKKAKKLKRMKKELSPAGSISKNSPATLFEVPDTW
# UniProt O75396: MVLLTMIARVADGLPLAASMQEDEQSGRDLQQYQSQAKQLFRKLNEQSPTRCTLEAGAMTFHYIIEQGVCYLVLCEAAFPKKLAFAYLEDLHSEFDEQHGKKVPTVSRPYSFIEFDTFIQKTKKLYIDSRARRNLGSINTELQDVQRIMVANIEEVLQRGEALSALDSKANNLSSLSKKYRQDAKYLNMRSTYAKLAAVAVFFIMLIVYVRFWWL
# Compound: Nc1nc2c(ncn2[C@@H]2O[C@H](COP(=O)(O)OP(=O)(O)OP(=O)(O)O)[C@@H](O)[C@H]2O)c(=O)[nH]1 [guanosine triphosphate]
# Assay: NP40-soluble protein abundance relative to vehicle (solubility fold change) (ratio); higher = more soluble protein in presence of GTP
# In short: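 Jurkat crude lysate prepared with a Dounce homogeniser was treated at eight concentrations spanning 0.1 to 10 mM, 10 min at room temperature then 3 min at 37 °C. Solubilisation with 0.8% NP40 and benzonase and ultracentrifugation preceded TMT labelling of the supernatant for LC-MS/MS. Fold change against the detergent-processed vehicle was determined per replicate from vsn-normalised intensities, across three independent experiments.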
Target,NP40-soluble protein abundance (concentration: 0.1mM),NP40-soluble protein abundance (concentration: 0.5mM),NP40-soluble protein abundance (concentration: 1mM),NP40-soluble protein abundance (concentration: 2mM),NP40-soluble protein abundance (concentration: 4mM),NP40-soluble protein abundance (concentration: 6mM),NP40-soluble protein abundance (concentration: 8mM),NP40-soluble protein abundance (concentration: 10mM)
PAK4 (UniProt O96013),1.02 ± 0.05,1.01 ± 0.091,0.995 ± 0.097,0.967 ± 0.082,0.945 ± 0.041,0.954 ± 0.088,1.01 ± 0.05,0.983 ± 0.071
KIF20A (UniProt O95235),1.15 ± 0.063,1.18 ± 0.058,1.167 ± 0.011,1.22 ± 0.038,1.27 ± 0.021,1.26 ± 0.038,1.35 ± 0.091,1.39 ± 0.074
ATP6V1G1 (UniProt O75348),0.985 ± 0.14,0.972 ± 0.044,1.03 ± 0.02,1.08 ± 0.066,1.02 ± 0.031,1.04 ± 0.019,1.06 ± 0.11,1.1 ± 0.035
UniProt O95155 and related entries,1.09 ± 0.054,1.04 ± 0.068,1.06 ± 0.057,0.999 ± 0.03,1.04 ± 0.047,1 ± 0.059,1.02 ± 0.077,0.969 ± 0.022
FTH1 (UniProt P02794),1.03 ± 0.11,1.08 ± 0.15,1.21 ± 0.23,1.26 ± 0.21,1.22 ± 0.21,1.27 ± 0.23,1.31 ± 0.23,1.3 ± 0.3
UniProt O75164,0.979 ± 0.057,0.993 ± 0.082,0.9597 ± 0.0062,1.02 ± 0.12,0.984 ± 0.032,0.949 ± 0.028,0.927 ± 0.045,0.905 ± 0.082
TIPRL (UniProt O75663),0.988 ± 0.076,0.99 ± 0.026,0.926 ± 0.077,0.886 ± 0.081,0.885 ± 0.097,0.883 ± 0.079,0.88 ± 0.11,0.842 ± 0.11
ZMPSTE24 (UniProt O75844),0.933 ± 0.035,0.987 ± 0.08,0.814 ± 0.04,0.863 ± 0.059,0.817 ± 0.028,0.844 ± 0.052,0.758 ± 0.062,0.769 ± 0.084
LYPLA2 (UniProt O95372),0.9143 ± 0.0062,0.859 ± 0.029,0.922 ± 0.037,0.928 ± 0.034,0.917 ± 0.034,0.869 ± 0.039,0.831 ± 0.12,0.887 ± 0.062
UniProt O94927,0.965 ± 0.026,0.968 ± 0.072,0.965 ± 0.028,0.9729 ± 0.0057,0.9737 ± 0.0073,0.99 ± 0.047,0.956 ± 0.04,0.983 ± 0.022
UniProt O94766 and related entries,1.01 ± 0.048,0.974 ± 0.052,0.985 ± 0.027,0.963 ± 0.02,0.976 ± 0.045,0.923 ± 0.014,0.984 ± 0.048,0.958 ± 0.033
UniProt O94966-6|O94966-7,1.05 ± 0.056,1.09 ± 0.058,1.01 ± 0.042,1.01 ± 0.064,1 ± 0.042,1 ± 0.041,0.977 ± 0.043,0.951 ± 0.043
HPRT1 (UniProt P00492),1.01 ± 0.059,1 ± 0.035,0.91 ± 0.022,0.905 ± 0.044,0.913 ± 0.033,0.88 ± 0.024,0.835 ± 0.071,0.823 ± 0.093
UniProt O95453 and related entries,1.03 ± 0.026,1.042 ± 0.0078,0.98 ± 0.02,0.956 ± 0.021,0.98 ± 0.014,0.96 ± 0.037,0.952 ± 0.027,0.915 ± 0.057
UniProt O75396,0.915 ± 0.073,0.887 ± 0.076,0.874 ± 0.067,0.837 ± 0.058,0.853 ± 0.057,0.854 ± 0.041,0.817 ± 0.047,0.827 ± 0.074

# Taken from above:
# In NP40-soluble protein abundance (concentration: 1mM), UniProt O95453 and related entries has 0.98 ± 0.02
# In NP40-soluble protein abundance (concentration: 1mM), UniProt O94766 and related entries has 0.985 ± 0.027

# — the supplement of paper PMC6411743
